# Primary screen of a compound library

The chains behind the UniProt entries cited, without tags or fusion partners. Residues count along the entry.
UniProt Q4DA54, 1-478: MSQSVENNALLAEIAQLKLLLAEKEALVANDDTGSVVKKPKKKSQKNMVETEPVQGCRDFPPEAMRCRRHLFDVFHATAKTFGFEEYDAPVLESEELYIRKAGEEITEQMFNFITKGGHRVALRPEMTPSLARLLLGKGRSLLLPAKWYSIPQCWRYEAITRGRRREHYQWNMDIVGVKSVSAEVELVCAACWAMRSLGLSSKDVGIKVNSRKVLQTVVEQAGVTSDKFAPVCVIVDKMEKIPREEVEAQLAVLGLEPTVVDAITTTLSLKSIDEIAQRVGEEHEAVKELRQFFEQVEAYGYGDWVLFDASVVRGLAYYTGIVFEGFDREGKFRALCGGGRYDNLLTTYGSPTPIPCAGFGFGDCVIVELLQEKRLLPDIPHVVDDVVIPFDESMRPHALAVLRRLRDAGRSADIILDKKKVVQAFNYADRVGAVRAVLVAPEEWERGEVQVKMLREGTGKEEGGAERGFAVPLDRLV

Data taken from ChEMBL document CHEMBL3988442, “University of Dundee, Small-Polar-MMV Screening Library” (2021).

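Histidine-tRNA ligase, Trypanosoma cruzi CL Brener (UniProt Q4DA54). Enzyme assay of histidyl-tRNA synthetase; the read-out is not stated. Concentration: 30 µM. Direction is inferred from retests: higher values go with stronger inhibition. About 69,000 compounds were tested under these conditions; 0.045% (about 31) showed 50% or more at least once.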

The filed quantity is “Percent Effect” (%).
The controls that fix the scale are not given in the record; negative values are as filed.
This is an unselected part of the compounds tested.

SMILES	Percent Effect
CS(=O)(=O)N1CCC(n2nnn(-c3ccccc3)c2=O)CC1	4.215%
Cn1cc(CN2CC[C@H]3[C@H]2CC(=O)N3Cc2ccncc2)cn1	-2.404%
Cc1cc(C)n(C2CCCN(C(=O)CCc3nccs3)C2)n1 (centres undefined)	2.907%
COc1ccc2c(c1)CN(Cc1nc3ccsc3c(=O)[nH]1)CC2	5.263%
CCOCCNS(=O)(=O)c1ccc2c3c1CCCN3C(=O)CO2	7.317%
Cc1cnn(CCC(=O)N2CCN(c3ccc(C#N)cn3)CC2)c1	4.298%
COCCOCC(=O)NCc1ccc(N(C)C)nc1	3.191%
Cc1nn(CCO)c(C)c1-c1cc(C(C)(C)C)nc(N)c1C#N	1.293%
O=C(c1cc(C2CC2)[nH]n1)N1CCN(c2nccs2)CC1	5.172%
CC1CN(C(=O)NCCCn2cncn2)CCO1 (centres undefined)	3.422%
O=C(Nc1cc(-c2ccncc2)no1)C1CCCCC1	7.937%
CC1(C)[C@H]2CC=C(CN3CCCn4nc(CNS(C)(=O)=O)cc4C3)[C@@H]1C2	6.358%
CS(=O)(=O)N1CCN(c2ccnc(N3CCCC3)n2)CC1	4.95%
COc1ccc(C(=O)NCC(c2cccn2C)N2CCCC2)cc1OC (centres undefined)	13%
C=C(C)COc1cccc(CNC(COC)c2ccnn2C)c1 (centres undefined)	-3.518%
CS(=O)(=O)NCCN1CCCC1c1ccc(Cl)cc1 (centres undefined)	5.714%
CCCNC(=O)CNc1cc(C#N)ccc1OCC	-0.7519%
CCC(=O)NCC(=O)NC(Cc1ccccc1)c1sccc1C (centres undefined)	-1.053%
N#Cc1cccc(CN2C[C@@H](F)[C@@H](OCc3nc4ccccc4[nH]3)C2)c1	1.493%
CC1CCCN(C(=O)c2ccc(-c3ccco3)o2)C1 (centres undefined)	12.42%
c1cnc2nc(N3CCCC3c3nnc4n3CCCCC4)ccc2n1 (centres undefined)	0%
CSCc1noc(CN2CCC3(CC2)CC(=O)N(CC=C(C)C)C3)n1	8.929%
Cc1cc(Br)ccc1CNC(=O)C1(O)CCSCC1	1.657%
C1=CCN(c2nc(CC3CC3)nc3c2CCN(C2CCOCC2)CC3)C1	23.47%
N#CC1CCCN(c2ncnc3c2CCN(Cc2ccccc2)CC3)C1 (centres undefined)	5%
Cn1ncc2c1CCCC2NCc1cnc(-c2ccccc2)nc1 (centres undefined)	3.759%
Cc1cc(C)n(C2CCCN(C(=O)CN(C)c3cnccn3)C2)n1 (centres undefined)	3.061%
CC1CS(=O)(=O)CCN1Cc1ccccc1N(C)C (centres undefined)	2.105%
F[C@@H]1CN(C2CCC2)C[C@@H]1OCc1nc2ncccc2[nH]1	5.435%
C=C(C)CN1CCN(Cc2nccn2C)C(C)C1 (centres undefined)	4.373%
O=C(COCC(=O)N(c1ccccc1)c1ccccc1)N1CCOCC1	9.278%
COCCc1noc(CN(C)C2CCCN(c3cccnn3)C2)n1 (centres undefined)	4.035%
CCc1ccc(CN2CCC(CNC(=O)c3ccc(C)nc3)C2)nc1 (centres undefined)	3.518%
Cc1nn(C(C)C)c(C)c1CN1CCN(C2CCCCC2)C(=O)C1	8.475%
Cc1cc(S(=O)(=O)N2C[C@H](C3CC3)[C@@H](N)C2)c(C)s1	3.004%
O=C(Nc1cc(C(F)(F)F)c[nH]c1=O)C1CCNCC1	7.921%
CC(=O)N1CCC(C(=O)Nc2nc(C3CC3)cs2)CC1	3.093%
COC(=O)NCC(=O)NC1CC(C)(C)Cc2oc(C)cc21 (centres undefined)	7.792%
CN(C)C(CNC(=O)c1cccc(-n2cnnn2)c1)c1ccccc1Cl (centres undefined)	5.785%
CN1CCC/C1=N\S(=O)(=O)c1ccc(NC(=O)Cc2cccs2)cc1	3.704%
CC(CN1CCOCC1)NCC1CCN(c2cnn(C)c(=O)c2)CC1 (centres undefined)	5.691%
O=C(Cc1ccc2c(c1)OCCO2)N1CCCC(n2cncn2)C1 (centres undefined)	-4.202%
Cc1n[nH]c(C)c1CCCN(C)Cc1c[nH]nc1-c1ccc(F)cc1	5.155%
O=C(NCc1nn(-c2ccccc2)c2c1CCC2)C1CC1	2.941%
CCN(CC)C(=O)[C@@H]1C[C@H](N)CN1C(=O)c1cc2c([nH]c1=O)CCC2	6.931%
COCc1cccc(NC(C)C(=O)N(C)Cc2cccc(F)c2)c1 (centres undefined)	1.695%
Cc1ccsc1C(=O)N1Cc2ccccc2C2(CCN(C)CC2)C1	6.011%
CC(=O)N(Cc1ncc(C)o1)C1CCN(Cc2sc(C)nc2C)C1 (centres undefined)	7.289%
COc1ccc(Cl)cc1CS(=O)(=O)CC(=O)NC(C)CCC(C)C (centres undefined)	2.941%
CCN(Cc1noc(C2CC2)n1)C(=O)c1onc2ccccc12	5%
O=C(CC1Cn2ncnc2NC1=O)Nc1ccc(F)c(F)c1 (centres undefined)	2.959%
Cc1cccc(CN2CC[C@H]3OCC[C@@]3(C(=O)N3CCCO3)C2)n1	3.333%
Cc1cccc(C(=O)N(CCCO)S(=O)(=O)c2cccs2)c1	1.02%
COCCN1CCC(C(=O)N(C)Cc2cccc(Cl)c2)C1 (centres undefined)	4.706%
COc1cc2nc3n(c(=O)c2cc1OC)CCN(C(C)=O)CC3	2.703%
NC(=O)CCSCc1ccc(Br)c(F)c1	0.6494%
FC(F)(F)c1ccnc(N2CCCN(Cc3ccccn3)CC2)n1	17.09%
CCN(Cc1noc(CC(C)C)n1)Cc1ccccc1C	3.933%
Cc1nc(N2CCOCC2)nc(C)c1NC(=O)Cc1ccc(Cl)cc1	4.124%
Cn1cccc1C(=O)N1CCCCC1c1ccn2ccnc2n1 (centres undefined)	7.605%
CN1CCC(CNC(=O)NCc2ccc(F)cc2)CC1	-6.25%
CCn1nc(C)c(CN(CCCN(C)C)Cc2ccccn2)c1C	6.513%
c1csc(CNc2ccccc2Cn2cncn2)c1	-4.202%
Fc1ccc(CNCCn2cccn2)cc1F	7.389%
CC1CN(C)c2ccccc2CN1C(=O)c1ccc[nH]1 (centres undefined)	1.653%
O=C(NCc1ccco1)[C@H]1C[C@@H]2CCN(c3cccc(F)c3)C[C@H]2O1	5.714%
Cc1cccc(COc2ccc(C(C)NS(N)(=O)=O)cc2)c1 (centres undefined)	11.06%
CC(=O)N1CCCN(Cc2csc(C)n2)c2ccccc21	5.882%
Cc1ccc(C(=O)N2[C@@H]3CC[C@H]2CN(C)C(=O)C3)c(=O)[nH]1	4.464%
Cn1ccnc(Sc2ccc(O)cc2)c1=O	11.67%
COc1ccccc1CCNC(=O)CN1CCCC1c1noc(C)n1 (centres undefined)	1.901%
COc1cc(N2CC3(CCN(S(C)(=O)=O)C3)C2)ncn1	4.301%
Cc1ncc(CN(C)C(=O)Nc2cccc(N3CCNC3=O)c2)s1	9.091%
CN(C)C(=O)COCc1nn(C)c2c1CCN(Cc1ccco1)C2	6.522%
CC(=O)N1C[C@H](NS(=O)(=O)N2CCCC2)[C@@H](c2ccc(C)o2)C1	1.136%
NC(=O)C1=NC2=NS(=O)(=O)c3ccccc3N2N1Cc1ccc(Cl)cc1	9.195%
CCn1cc2c(n1)CN(C(=O)c1ccncc1)CC2COCC1CC1 (centres undefined)	0.5405%
O=C(NCCSCc1ccc(Br)s1)C1CCCN(C(=O)c2cccs2)C1 (centres undefined)	1.935%
O=C1CC2(CCSC2)C(=O)N1Cc1coc(-c2ccccc2)n1 (centres undefined)	-0.5525%
CCc1ccc(S(=O)(=O)N2Cc3c(CN(C)C)nn(C)c3C2)cc1	9.548%
CCc1nc(CN2CCN(C(=O)N3CCCCC3)CC2)cs1	4.035%
CC(C)Oc1ncnc2c1CCN(Cc1cccs1)CC2	7.027%
Cc1cccc(-c2nnn3c2COC(CNS(=O)(=O)C2CC2)C3)c1 (centres undefined)	5.155%
Cc1ccc(C(=O)N2CCCC(c3nncn3C)C2)c(C)c1 (centres undefined)	2.624%
CCc1ccc(S(=O)(=O)N2CC3(COC(C)(C)OC3)C2)s1	-15.46%
OC1(CNC2CCN(Cc3ccncc3)CC2)CCc2ccccc21 (centres undefined)	6.18%
CCC1=N[C@@]2(CC[C@@H]3CN(Cc4cccc(Cl)c4)C[C@@H]32)C(=O)N1C	10.58%
CN(C)c1ccc2c(c1)CN(C(=O)c1c[nH]cn1)C2c1cnco1 (centres undefined)	1.227%
CCC(C(=O)NC(C)(C)C)n1cccc(OC)c1=O (centres undefined)	1.657%
CCN(C)CC(=O)N1CCCC(c2nnc(CN3CCOCC3)n2C)C1 (centres undefined)	8.163%
CN(Cc1cc(-c2ccncc2)no1)Cc1nccn1C	1.205%
CCc1[nH]c2ccc(CNC(=O)Cc3c(C)nc(N)nc3C)cc2c1C	17.02%
CC(=O)N1CC[C@H]2OCC[C@@H](C(=O)N3CCCCO3)[C@@H]2C1	3.825%

The last 8 entries again:

With OC1(CNC2CCN(Cc3ccncc3)CC2)CCc2ccccc21 (centres undefined) the screen gave 6.18%.
With CCC1=N[C@@]2(CC[C@@H]3CN(Cc4cccc(Cl)c4)C[C@@H]32)C(=O)N1C the screen gave 10.58%.
With CN(C)c1ccc2c(c1)CN(C(=O)c1c[nH]cn1)C2c1cnco1 (centres undefined) the screen gave 1.227%.
With CCC(C(=O)NC(C)(C)C)n1cccc(OC)c1=O (centres undefined) the screen gave 1.657%.
With CCN(C)CC(=O)N1CCCC(c2nnc(CN3CCOCC3)n2C)C1 (centres undefined) the screen gave 8.163%.
With CN(Cc1cc(-c2ccncc2)no1)Cc1nccn1C the screen gave 1.205%.
With CCc1[nH]c2ccc(CNC(=O)Cc3c(C)nc(N)nc3C)cc2c1C the screen gave 17.02%.
With CC(=O)N1CC[C@H]2OCC[C@@H](C(=O)N3CCCCO3)[C@@H]2C1 the screen gave 3.825%.